Patent US20090136495A1 (Eli Lilly, published 2009)
These are yes or no findings as the source states them, for the method shown. Some binding calls cover weakened binding; strength is not graded here.

T1: cynomolgus monkey hepcidin-25 (cynomolgus monkey, UniProt A7XEI3 60-84, not fully specified)
T1 construct: mature; also called mature cynomolgous monkey hepcidin
T1 peptide: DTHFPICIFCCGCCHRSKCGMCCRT


Molecular target: T1, cynomolgus monkey hepcidin-25
Assay: SPR (BIAcore), 25 C

Binder	binding
Mab 3.23 (antibody, human IgG4 S228P, kappa, V domains shown) VH: QVQLVQSGAEVKKPGSSVKVSCKASGYTFLIYPISWVRQAPGQGLEWMGNFHPYLGVTNYVEKFKGRVTITADKSTSTAYMELSSLRSEDTAVYYCARGGTGSFDYWGQGTTVTVSS VL: DIQMTQSPSSLSASVGDRVTITCSASSRVSSTYLFWYQQKPGKAPKLLIYRTSPLASGVPSRFSGSGSGTDFTLTISSLQPEDFATYYCQQWSGYPFVFGGGTKVEIKR	binds
Mab Hu22 (antibody, human IgG4 S228P, kappa, V domains shown) VH: QVQLVQSGAEVKKPGSSVKVSCKASGYTFTIYPISWVRQAPGQGLEWMGNFHPYLGDTNYNEKFKGRVTITADKSTSTAYMELSSLRSEDTAVYYCARGGTGSFDYWGQGTTVTVSS VL: DIQMTQSPSSLSASVGDRVTITCSASSRVSSTYLFWYQQKPGKAPKLLIYRTSTLASGVPSRFSGSGSGTDFTLTISSLQPEDFATYYCQQWSGYPFTFGGGTKVEIKR	binds
